PubChem BioAssay AID504744 | Drosophila RNAi Screening Center | 2011
Aim: 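Uncover factors, including feedback loops, that control dAkt activation in fly cells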 (primary screen). Cell system: Drosophila Kc167 cells. Reagents: long dsRNA against Drosophila genes, 250 ng dsRNA per well of a 384-well plate. Timing: 3 days of knock-down, then overnight serum-free starvation before stimulation. Conditions: bovine insulin at 387 nM for 10 minutes after 12 h without serum. Detection: 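Per-well phospho-dAkt level from an in-cell fluorescent antibody stain, divided by a DNA-dye signal; log2 residuals turned into z-scores that take cell number into account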. Call rule: 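Under insulin, a gene counts as a hit if the average z-score of two replicates lies above 2.5 or below -2.5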.
The screen tested about 23,000 reagents; this is a random part of those that have a named target and a result. In the full data, 98 (0.43%) were called active. 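Only hit calls are given; the phospho-dAkt signals, z-scores and hit direction were not deposited.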 Names joined by + are all predicted targets of the reagent.

| gene | amplicon | outcome |
| --- | --- | --- |
| Cul4 | DRSC07243 | inactive |
| Cfp1 | DRSC18128 | inactive |
| Ho | DRSC14939 | inactive |
| CG30485 | DRSC06376 | inactive |
| Jon65Aiii | DRSC10649 | inactive |
| CG2336 | DRSC12581 | inactive |
| ng1 | DRSC18802 | inactive |
| Hcs | DRSC12070 | inactive |
| Hcs | DRSC12256 | inactive |
| CG17267 | DRSC15207 | inactive |
| CG5768 | DRSC15870 | inactive |
| vis + achi | DRSC07277 | inactive |
| CG13949 | DRSC00367 | inactive |
| Hsc70-1 | DRSC11185 | inactive |
| Sgf29 | DRSC04076 | inactive |
| CG9117 | DRSC03141 | inactive |
| CG6503 | DRSC16056 | inactive |
| CG14915 | DRSC02399 | inactive |
| CG4691 | DRSC01950 | inactive |
| CG5895 | DRSC10554 | inactive |
| CG7017 | DRSC10762 | inactive |
| CG32191 | DRSC10522 | inactive |
| CG33506 | DRSC05981 | inactive |
| Tdg | DRSC17119 | inactive |
| Tdg | DRSC17169 | inactive |
| Mur82C | DRSC12011 | inactive |
| Mur82C | DRSC12212 | inactive |
| raptor | DRSC18359 | inactive |
| Bap170 | DRSC04964 | inactive |
| Bap170 | DRSC21826 | inactive |
| Desat2 | DRSC15919 | inactive |
| CREG | DRSC16595 | inactive |
| CG14411 | DRSC19597 | inactive |
| alph | DRSC15398 | inactive |
| tej | DRSC07219 | inactive |
| CG8860 | DRSC07291 | inactive |
| RanGAP | DRSC22003 | inactive |
| Jon25Bii | DRSC03114 | inactive |
| CG13154 | DRSC06279 | inactive |
| Fum3 | DRSC10592 | inactive |
| Rfk | DRSC15454 | inactive |
| Pkn + Tsen15 | DRSC21969 | inactive |
| ken | DRSC04696 | inactive |
| karr | DRSC20681 | inactive |
| Strip | DRSC08194 | inactive |
| Nsun2 | DRSC18662 | inactive |
| CG1532 | DRSC20516 | inactive |
| Dgp-1 | DRSC07400 | inactive |
| CG7264 | DRSC10793 | inactive |
| Idgf4 | DRSC18675 | inactive |
| TpnC47D | DRSC07564 | inactive |
| PQBP1 | DRSC14393 | inactive |
| CG34396 | DRSC04245 | inactive |
| CG34396 | DRSC04246 | inactive |
| CG14625 | DRSC18633 | inactive |
| ohgt | DRSC15521 | inactive |
| l(1)G0196 | DRSC20591 | inactive |
| l(1)G0196 | DRSC20628 | inactive |
| l(1)G0196 | DRSC20629 | inactive |
| Porin2 | DRSC02584 | inactive |
| TrissinR | DRSC02334 | inactive |
| TrissinR | DRSC02335 | inactive |
| TrissinR | DRSC02336 | inactive |
| ctrip | DRSC12242 | inactive |
| ctrip | DRSC12287 | inactive |
| ctrip | DRSC22449 | inactive |
| REPTOR-BP | DRSC02683 | inactive |

Continued; the last 5 above are carried over.
| gene | amplicon | outcome |
| --- | --- | --- |
| TrissinR | DRSC02336 | inactive |
| ctrip | DRSC12242 | inactive |
| ctrip | DRSC12287 | inactive |
| ctrip | DRSC22449 | inactive |
| REPTOR-BP | DRSC02683 | inactive |
| PIG-G | DRSC06823 | inactive |
| Rbp4 | DRSC16818 | inactive |
| ScsbetaA | DRSC14446 | inactive |
| ATP6 (retired record) | DRSC21278 | inactive |
| ppk15 | DRSC14733 | inactive |
| 140up | DRSC12634 | inactive |
| Acp1 | DRSC01854 | inactive |
| GstD4 | DRSC16685 | inactive |
| Vha68-1 | DRSC03470 | inactive |
| CG34204 | DRSC03897 | inactive |
| CG15312 | DRSC18000 | inactive |
| CG42512 + CG32573 | DRSC19532 | inactive |
| CG42512 + CG32573 | DRSC19906 | inactive |
| CG42512 + CG32573 | DRSC22782 | inactive |
| CG7458 | DRSC11829 | inactive |
| CG7458 | DRSC21340 | inactive |
| CG14331 | DRSC14810 | inactive |
| CG31534 (retired record) | DRSC12141 | inactive |
| CG31534 (retired record) | DRSC12289 | inactive |
| scaf6 | DRSC10075 | inactive |
| scaf6 | DRSC10676 | inactive |
| scaf6 | DRSC10678 | inactive |
| TBC1D5 | DRSC16421 | inactive |
| CG33128 | DRSC00294 | inactive |
| CG30062 | DRSC21737 | inactive |
| CG30054 | DRSC05354 | inactive |
| CG4884 | DRSC15671 | inactive |
| brat | DRSC03497 | inactive |
| Fili | DRSC03907 | inactive |
| Fili | DRSC04132 | inactive |
| Fili | DRSC04445 | inactive |
| CG11597 | DRSC09847 | inactive |
| CG11263 | DRSC09832 | inactive |
| subdued | DRSC15137 | inactive |
| CG13287 | DRSC09961 | inactive |
| Tsf1 | DRSC20296 | inactive |
| Esp | DRSC16664 | inactive |
| CG12486 (retired record) | DRSC09888 | inactive |
| Kat60 | DRSC12378 | inactive |
| CkIIalpha-i3 | DRSC08651 | inactive |
